Results are given in words; binding and its absence hold for the method and conditions named. In cells and extracts the contact can be indirect. Binding can be weak; no strength is given.
Molecular target: substrate-binding domain of GRP78 (BiFC construct) (UniProt P11021)
Experiment: split reporter; split Venus BiFC; HEK293 cells co-transfected with pEZY BiFC N-Venus and C-Venus plasmids, fixed 20-24 h after transfection, confocal microscopy

Sequences of proteins named here, by UniProt entry; tags and fusion partners are left off. A change or cut given only in a name is not applied to a line headed by its entry. Residues count along the entry.
UniProt P11021: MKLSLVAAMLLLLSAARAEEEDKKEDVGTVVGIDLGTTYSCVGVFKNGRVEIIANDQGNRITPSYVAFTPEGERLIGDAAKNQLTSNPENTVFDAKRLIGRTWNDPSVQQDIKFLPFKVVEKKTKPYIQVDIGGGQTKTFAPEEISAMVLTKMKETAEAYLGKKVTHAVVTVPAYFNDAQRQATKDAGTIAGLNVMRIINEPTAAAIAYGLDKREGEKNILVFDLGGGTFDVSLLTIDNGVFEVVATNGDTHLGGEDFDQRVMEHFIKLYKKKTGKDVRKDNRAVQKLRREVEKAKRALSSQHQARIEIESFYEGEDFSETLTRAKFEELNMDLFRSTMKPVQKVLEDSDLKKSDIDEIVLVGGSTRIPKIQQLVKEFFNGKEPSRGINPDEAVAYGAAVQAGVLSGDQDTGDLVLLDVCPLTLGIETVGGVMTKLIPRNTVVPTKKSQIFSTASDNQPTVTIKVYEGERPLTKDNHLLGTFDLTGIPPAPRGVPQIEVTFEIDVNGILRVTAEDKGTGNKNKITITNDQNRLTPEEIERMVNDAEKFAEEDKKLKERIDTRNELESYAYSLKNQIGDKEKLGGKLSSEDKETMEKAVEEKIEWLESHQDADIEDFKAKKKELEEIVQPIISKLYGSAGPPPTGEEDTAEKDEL
UniProt Q49AH0, residues 25-187: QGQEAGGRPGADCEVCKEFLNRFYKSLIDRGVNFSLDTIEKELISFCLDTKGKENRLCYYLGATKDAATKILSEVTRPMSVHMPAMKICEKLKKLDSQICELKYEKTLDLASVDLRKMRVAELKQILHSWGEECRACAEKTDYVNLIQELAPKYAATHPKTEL

binding: binds
Substance: pre-CV-CDNF (full-length CDNF with C-Venus, BiFC construct) (from UniProt Q49AH0 25-187)
